The list shows a part of the results. Further columns of the screen follow, without active or inactive calls. Most of these compounds were active or inconclusive in the main read-out, so they are no random draw. Potencies come from curve fits of mixed quality, noted in brackets.

The nature of this experiment: Cell signaling CRE-BLA (Fsk stim). The following applies: CHO CRE-bla reporter (cAMP response element driving beta-lactamase), forskolin EC10, beta-lactamase ratio; measured here: 460 nm blue channel. Put shortly: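 Reporter-gene assay: CHO cells with beta-lactamase behind cAMP responsive elements, co-treated with compound and EC10 NKH 477 for 3 hours at 37 degrees Celsius. Activity came from the 460/530 nm CCF4 emission ratio.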
For `COCCNc1nc(-c2ccccc2CN(C)C)nc2ccccc12`, the AC50 (as a rule, the concentration at which the activity in the assay is half-maximal) was 12.6 µM [rising, partial curve].
`COc1ccc(C(=O)CSc2cc(C)nc3nc(C)nn23)cc1OC`: the AC50 was 10 µM [rising, partial curve].
For the molecule `COc1ccc(-c2onc(C)c2-c2ccc(C(=O)OC(C)C)o2)c(O)c1`, the AC50 is 3.16 µM [falling, partial curve].
For `CCN1CCN(C(=O)c2nn(-c3ccc(OC)cc3)c(=O)c3c2c2ccccc2n3C)CC1`, the AC50 was 0.02 µM [falling, full curve].
On to `Oc1ccccc1-c1nc(NCC2CCCO2)c2ccccc2n1` (stereo unspecified), for which the AC50 was 20 µM [falling, single point].
As for `CCOCCCNC(=O)C(NC(=O)C1CCC(=O)N1)c1ccc(C)cc1` (stereo unspecified), the AC50 is 0.158 µM [falling, full curve, poor fit].
`CC1=C(C(=O)OCc2ccccc2)C(C2CCCCC2)NC(=O)N1CCCCCC(=O)O` (stereo unspecified): the AC50 was 7.94 µM [rising, partial curve].
As for `O=C(Nc1cc(C(F)(F)F)ccc1N1CCOCC1)C1Cc2ccccc2CN1C(=O)c1ccco1` (stereo unspecified), the figure is 2.51 µM [falling, full curve].
Take `COc1cc2c(cc1OC)C(c1ccccc1)N(C(=O)c1ccco1)CC2` (stereo unspecified): the AC50 was 6.31 µM [rising, partial curve].
Take `O=C(CCC1COc2ccccc2O1)Nc1ccc(Cl)cn1` (stereo unspecified): the AC50 was 25.1 µM [falling, single point].
Take `COc1ccc(-n2nnc3c(=O)n(CC(=O)NCC4CCCO4)cnc32)cc1` (stereo unspecified): the half-maximal activity concentration (AC50) is 25.1 µM [falling, single point].
As for `COCCn1c(=O)c(-c2ccc(F)cc2)nc2cnc(OC)nc21`, the AC50 was 12.6 µM [rising, partial curve, poor fit].
For the molecule `COc1ccc(C(=O)NC(=O)CSc2nnc(-c3ccco3)n2-c2ccccc2)cc1`, the AC50 is 6.31 µM [falling, partial curve].
Consider `O=S(=O)(c1cccc2ccccc12)N1CCSC1`, for which the AC50 was 25.1 µM [falling, single point].
Consider `CC(C)C[C@@H](CC(=O)N[C@@H](CCCN)CC(=O)N[C@@H]1CCNC[C@H]1C(=O)N[C@H](CC(=O)N[C@@H](CCC(=O)O)CC(=O)O)CC(C)C)NC(=O)[C@@H]1CCCC[C@H]1N`, for which the AC50 was 10 µM [falling, full curve, poor fit].
For the molecule `CCOC(=O)COc1ccc2c3c(c(=O)oc2c1C)CCC3`, the AC50 was 15.8 µM [rising, single point].
Next, `COc1ccc(C2OC(=O)CC2C(=O)N2CCN(c3cc(Cl)ccc3C)CC2)cc1OC` (stereo unspecified): 10 µM [rising, partial curve]; `Cc1nn(-c2ccccc2)c2sc(C(=O)c3c(N)n(C)c(=O)n(C)c3=O)cc12`: 10 µM [rising, partial curve]; `COC(=O)C1=CN(CCCN2CCCC2=O)C=C(C(=O)OC)C1c1cccs1`: 15.8 µM [rising, single point].
As for `COCCN(CC(=O)Nc1ccc(F)cc1)S(=O)(=O)c1ccc(S(=O)(=O)N2CCCC2)cc1`, the AC50 was 31.6 µM [falling, partial curve, poor fit].
`CC(C)c1ccc2c(c1)c(SC(C)(C)C)c(CC(C)(C)C(=O)O)n2Cc1ccc(Cl)cc1`: the AC50 was 25.1 µM [falling, partial curve].
For `CCOC(=O)C1CCCN(c2ncnc3c2[nH]c2cccc(OC)c23)C1` (stereo unspecified), the AC50 was 12.6 µM [rising, single point].
Regarding `CC1CCCCN1C(=O)CSc1nc2ccsc2c(=O)n1Cc1ccccn1` (stereo unspecified), the AC50 is 10 µM [rising, single point].
Regarding `COc1ccc(S(=O)(=O)Nc2cc(OC)c(NC(=O)c3ccco3)cc2OC)cc1`, the AC50 was 15.8 µM [rising, single point].
On to `Cc1nn(-c2ccccc2)c2[nH]c(=O)c(CNc3ccc4c(c3)OCCO4)cc12`, for which the AC50 is 5.01 µM [falling, single point].
Turning to `CN(C)c1ncc2nc(-c3ccccc3)c(=O)n(CCC#N)c2n1`, the AC50 was 2.51 µM [rising, full curve].
On to `COc1cc(NS(=O)(=O)c2ccc(NC(=O)C3CCCO3)cc2)nc(OC)n1` (stereo unspecified), for which the AC50 was 0.00316 µM [falling, full curve, poor fit].
Consider `Cc1ccccc1OCC(=O)Nc1ccccc1N1CCCCC1`, for which the AC50 was 2 µM [rising, full curve, poor fit].
On to `COc1ccc(OC)c(C2=NOC(C(=O)Nc3cccc(C(C)=O)c3)C2)c1` (stereo unspecified), for which the AC50 is 25.1 µM [rising, single point].
In the case of `CN(Cc1ccco1)c1ncnc2ccc(-c3ccccc3C(F)(F)F)cc12`, the AC50 was 10 µM [rising, partial curve].
For `Cc1nn(-c2nc3ccccc3s2)c(C)c1Oc1ccccc1O`, the AC50 was 25.1 µM [falling, single point].
For the molecule `Cc1cc(C)n2nc(NCc3cccc(Br)c3)nc2n1`, the AC50 was 10 µM [rising, partial curve].
Take `Cc1sc2ncnc(-n3cnc4ccccc43)c2c1C`: the AC50 is 3.98 µM [falling, partial curve].
Turning to `Cc1onc(-c2c(F)cccc2Cl)c1C(=O)Nc1cccc2nsnc12`, the AC50 is 25.1 µM [rising, single point].
As for `O=S1(=O)N=C(N2CCN(Cc3ccc4c(c3)OCO4)CC2)c2ccccc21`, the figure is 0.00316 µM [falling, full curve, poor fit]; as for `N#Cc1nc(COc2ccccc2)oc1NCCCn1ccnc1`, 6.31 µM [falling, partial curve, poor fit].
In the case of `COc1ccc(Cn2c3nc4ccccc4nc3c3c(=O)n(Cc4ccco4)cnc32)cc1`, the concentration at half-maximal activity (AC50) was 12.6 µM [rising, single point].
For the molecule `CCCN(CCC)C(=O)C1CCN(c2cc(C)nc3c(-c4ccc(OC)c(OC)c4)c(C)nn23)CC1`, the AC50 is 12.6 µM [rising, single point].
`CC(C)Cc1nc2oc3c(NCc4cccnc4)ncnc3c2c2c1CCC2`: the AC50 was 5.01 µM [rising, partial curve].
For `COc1cccc(Nc2ncc3nc(C)c(=O)n(C4CC4)c3n2)c1`, the AC50 was 2.51 µM [rising, full curve].
Take `COc1cc(OC)c(NC(=O)c2c(-c3ccccc3)noc2C)cc1Cl`: the AC50 is 3.16 µM [rising, full curve].

The values above are taken from PubChem BioAssay AID662 (National Center for Advancing Translational Sciences (NCATS), 2007).
